# Laboratory results as given in the supplement of paper PMC8728848.
# The list shows a part of the results.
# B1: rPitB (Streptococcus pneumoniae), A0A0I7U739 (protein)
# chain: MSEIEIINAKKIYHDVPVIENLNITIPKGSLFTLLGASGCGKTTLLRMIAGFNSIKDGEFYFDDTKINNMEPSKRNIGLVFQNYAIFPHLTVRDNVAFGLMQKKVPKEELIQQTNKYLELMQIAQYAD
# Tests used:
# Assay in all cases: glycan array binding signal (z-score within array); higher = stronger binding
# Conditions in all cases: glycan notation: IUPAC condensed, linker removed
# GalNAc(b1-3)GalNAc = target: GalNAc(b1-3)GalNAc
# Method in brief: (§1)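 From the Consortium for Functional Glycomics database, 3228 arrays were curated, keeping only those whose protein sequence was available. Binding is given as a within-array Z-score averaged across arrays sharing a protein sequence and across linkers. Negative Z-scores can be read as non-binding.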
# GalNAc(b1-4)GlcNAc = target: GalNAc(b1-4)GlcNAc
# Method in brief: as §1
# [1] = target: GalNAc(b1-4)GlcNAc(b1-2)Man(a1-3)[GalNAc(b1-4)GlcNAc(b1-2)Man(a1-6)]Man(b1-4)GlcNAc(b1-4)GlcNAc
# Method in brief: as §1
# GalNAc(b1-6)GalNAc = target: GalNAc(b1-6)GalNAc
# Method in brief: as §1
# Glc(a1-4)Glc = target: Glc(a1-4)Glc
# Method in brief: as §1
# Glc(a1-6)Glc(a1-6)Glc = target: Glc(a1-6)Glc(a1-6)Glc
# Method in brief: as §1
# Glc(b1-4)Glc = target: Glc(b1-4)Glc
# Method in brief: as §1
# Glc(b1-6)Glc = target: Glc(b1-6)Glc
# Method in brief: as §1
# GlcA(b1-3)Gal = target: GlcA(b1-3)Gal
# Method in brief: as §1
# GlcA(b1-3)GlcNAc = target: GlcA(b1-3)GlcNAc
# Method in brief: as §1
# GlcA(b1-6)Gal = target: GlcA(b1-6)Gal
# Method in brief: as §1
# [2] = target: GlcNAc(a1-3)Gal(b1-4)GlcNAc
# Method in brief: as §1
# [3] = target: GlcNAc(a1-4)Gal(b1-3)GlcNAc
# Method in brief: as §1
# [4] = target: GlcNAc(a1-4)Gal(b1-4)GalNAc
# Method in brief: as §1
# [5] = target: GlcNAc(a1-4)Gal(b1-4)GlcNAc
# Method in brief: as §1
# [6] = target: GlcNAc(a1-4)Gal(b1-4)GlcNAc(b1-3)Gal(b1-4)Glc
# Method in brief: as §1
# [7] = target: GlcNAc(a1-4)Gal(b1-4)GlcNAc(b1-3)Gal(b1-4)GlcNAc
# Method in brief: as §1
# [8] = target: GlcNAc(a1-4)Gal(b1-4)GlcNAc(b1-3)Gal(b1-4)GlcNAc(b1-3)Gal(b1-4)GlcNAc
# Method in brief: as §1
# [9] = target: GlcNAc(a1-4)Gal(b1-4)GlcNAc(b1-3)Gal(b1-4)[Fuc(a1-3)]GlcNAc(b1-3)Gal(b1-4)[Fuc(a1-3)]GlcNAc
# Method in brief: as §1
# [10] = target: GlcNAc(a1-6)Gal(b1-4)GlcNAc
# Method in brief: as §1
# [11] = target: GlcNAc(b1-2)Gal(b1-3)GalNAc
# Method in brief: as §1
# [12] = target: GlcNAc(b1-2)Man(a1-3)[GlcNAc(b1-2)Man(a1-6)]Man(b1-4)GlcNAc(b1-4)GlcNAc
# Method in brief: as §1
# [13] = target: GlcNAc(b1-2)Man(a1-3)[GlcNAc(b1-2)Man(a1-6)]Man(b1-4)GlcNAc(b1-4)[Fuc(a1-6)]GlcNAc
# Method in brief: as §1
# [14] = target: GlcNAc(b1-2)Man(a1-3)[GlcNAc(b1-4)][GlcNAc(b1-2)Man(a1-6)]Man(b1-4)GlcNAc(b1-4)GlcNAc
# Method in brief: as §1
# [15] = target: GlcNAc(b1-2)[GlcNAc(b1-4)]Man(a1-3)[GlcNAc(b1-2)Man(a1-6)]Man(b1-4)GlcNAc(b1-4)GlcNAc
# Method in brief: as §1
# [16] = target: GlcNAc(b1-2)[GlcNAc(b1-4)]Man(a1-3)[GlcNAc(b1-4)][GlcNAc(b1-2)Man(a1-6)]Man(b1-4)GlcNAc(b1-4)GlcNAc
# Method in brief: as §1
# [17] = target: GlcNAc(b1-2)[GlcNAc(b1-4)]Man(a1-3)[GlcNAc(b1-4)][GlcNAc(b1-2)[GlcNAc(b1-6)]Man(a1-6)]Man(b1-4)GlcNAc(b1-4)GlcNAc
# Method in brief: as §1
# [18] = target: GlcNAc(b1-2)[GlcNAc(b1-6)]Man(a1-6)[GlcNAc(b1-2)Man(a1-3)]Man(b1-4)GlcNAc(b1-4)GlcNAc
# Method in brief: as §1
# [19] = target: GlcNAc(b1-2)[GlcNAc(b1-6)]Man(a1-6)[GlcNAc(b1-2)Man(a1-3)][GlcNAc(b1-4)]Man(b1-4)GlcNAc(b1-4)GlcNAc
# Method in brief: as §1
# GlcNAc(b1-3)Gal = target: GlcNAc(b1-3)Gal
# Method in brief: as §1
# [20] = target: GlcNAc(b1-3)Gal(b1-3)GalNAc
# Method in brief: as §1
# GlcNAc(b1-3)Gal(b1-4)Glc = target: GlcNAc(b1-3)Gal(b1-4)Glc
# Method in brief: as §1
# [21] = target: GlcNAc(b1-3)Gal(b1-4)GlcNAc
# Method in brief: as §1
# [22] = target: GlcNAc(b1-3)Gal(b1-4)GlcNAc(b1-3)Gal(b1-4)GlcNAc
# Method in brief: as §1
# GlcNAc(b1-3)GalNAc = target: GlcNAc(b1-3)GalNAc
# Method in brief: as §1
# GlcNAc(b1-3)Man = target: GlcNAc(b1-3)Man
# Method in brief: as §1
# [23] = target: GlcNAc(b1-3)[GlcNAc(b1-4)][GlcNAc(b1-6)]GlcNAc
# Method in brief: as §1
# [24] = target: GlcNAc(b1-3)[GlcNAc(b1-6)]Gal(b1-4)GlcNAc
# Method in brief: as §1
# [25] = target: GlcNAc(b1-3)[GlcNAc(b1-6)]GalNAc
# Method in brief: as §1
# [26] = target: GlcNAc(b1-4)Gal(b1-4)GlcNAc
# Method in brief: as §1
# GlcNAc(b1-4)GlcNAc = target: GlcNAc(b1-4)GlcNAc
# Method in brief: as §1
# [27] = target: GlcNAc(b1-4)GlcNAc(b1-4)GlcNAc
# Method in brief: as §1
# [28] = target: GlcNAc(b1-4)GlcNAc(b1-4)GlcNAc(b1-4)GlcNAc(b1-4)GlcNAc
# Method in brief: as §1
# [29] = target: GlcNAc(b1-4)GlcNAc(b1-4)GlcNAc(b1-4)GlcNAc(b1-4)GlcNAc(b1-4)GlcNAc
# Method in brief: as §1
# [30] = target: GlcNAc(b1-4)[GlcNAc(b1-6)]GalNAc
# Method in brief: as §1
binder,measurement,setting,value
B1,glycan array binding signal (z-score),GalNAc(b1-3)GalNAc,0.302
same,glycan array binding signal (z-score),GalNAc(b1-4)GlcNAc,-0.736
same,glycan array binding signal (z-score),[1],0.314
same,glycan array binding signal (z-score),GalNAc(b1-6)GalNAc,-0.608
same,glycan array binding signal (z-score),Glc(a1-4)Glc,0.07
same,glycan array binding signal (z-score),Glc(a1-6)Glc(a1-6)Glc,-0.433
same,glycan array binding signal (z-score),Glc(b1-4)Glc,0.631
same,glycan array binding signal (z-score),Glc(b1-6)Glc,-0.176
same,glycan array binding signal (z-score),GlcA(b1-3)Gal,-0.403
same,glycan array binding signal (z-score),GlcA(b1-3)GlcNAc,5.72
same,glycan array binding signal (z-score),GlcA(b1-6)Gal,-0.303
same,glycan array binding signal (z-score),[2],0.422
same,glycan array binding signal (z-score),[3],-0.201
same,glycan array binding signal (z-score),[4],-0.698
same,glycan array binding signal (z-score),[5],0.268
same,glycan array binding signal (z-score),[6],0.462
same,glycan array binding signal (z-score),[7],0.021
same,glycan array binding signal (z-score),[8],-0.388
same,glycan array binding signal (z-score),[9],3.89
same,glycan array binding signal (z-score),[10],0.531
same,glycan array binding signal (z-score),[11],-0.153
same,glycan array binding signal (z-score),[12],0.13
same,glycan array binding signal (z-score),[13],0.78
same,glycan array binding signal (z-score),[14],-0.914
same,glycan array binding signal (z-score),[15],0.237
same,glycan array binding signal (z-score),[16],-1.01
same,glycan array binding signal (z-score),[17],-0.276
same,glycan array binding signal (z-score),[18],-0.33
same,glycan array binding signal (z-score),[19],0.281
same,glycan array binding signal (z-score),GlcNAc(b1-3)Gal,-0.16
same,glycan array binding signal (z-score),[20],0.425
same,glycan array binding signal (z-score),GlcNAc(b1-3)Gal(b1-4)Glc,-0.53
same,glycan array binding signal (z-score),[21],-0.457
same,glycan array binding signal (z-score),[22],-0.838
same,glycan array binding signal (z-score),GlcNAc(b1-3)GalNAc,-0.397
same,glycan array binding signal (z-score),GlcNAc(b1-3)Man,-0.246
same,glycan array binding signal (z-score),[23],0.058
same,glycan array binding signal (z-score),[24],0.187
same,glycan array binding signal (z-score),[25],0.67
same,glycan array binding signal (z-score),[26],1.14
same,glycan array binding signal (z-score),GlcNAc(b1-4)GlcNAc,0.156
same,glycan array binding signal (z-score),[27],-0.783
same,glycan array binding signal (z-score),[28],-0.632
same,glycan array binding signal (z-score),[29],0.263
same,glycan array binding signal (z-score),[30],0.05

# In another format: entries from further up
binder	measurement	setting	value
B1	glycan array binding signal (z-score)	[10]	0.531
same	glycan array binding signal (z-score)	[14]	-0.914
same	glycan array binding signal (z-score)	[25]	0.67
